Results published in PMC6554977.
These are yes or no findings as the source states them, for the method shown. In cells and extracts the contact can be indirect. Some binding calls cover weakened binding; strength is not graded here.

Sequences of proteins named here, by UniProt entry; tags and fusion partners are left off. A change or cut given only in a name is not applied to a line headed by its entry.
UniProt P35222: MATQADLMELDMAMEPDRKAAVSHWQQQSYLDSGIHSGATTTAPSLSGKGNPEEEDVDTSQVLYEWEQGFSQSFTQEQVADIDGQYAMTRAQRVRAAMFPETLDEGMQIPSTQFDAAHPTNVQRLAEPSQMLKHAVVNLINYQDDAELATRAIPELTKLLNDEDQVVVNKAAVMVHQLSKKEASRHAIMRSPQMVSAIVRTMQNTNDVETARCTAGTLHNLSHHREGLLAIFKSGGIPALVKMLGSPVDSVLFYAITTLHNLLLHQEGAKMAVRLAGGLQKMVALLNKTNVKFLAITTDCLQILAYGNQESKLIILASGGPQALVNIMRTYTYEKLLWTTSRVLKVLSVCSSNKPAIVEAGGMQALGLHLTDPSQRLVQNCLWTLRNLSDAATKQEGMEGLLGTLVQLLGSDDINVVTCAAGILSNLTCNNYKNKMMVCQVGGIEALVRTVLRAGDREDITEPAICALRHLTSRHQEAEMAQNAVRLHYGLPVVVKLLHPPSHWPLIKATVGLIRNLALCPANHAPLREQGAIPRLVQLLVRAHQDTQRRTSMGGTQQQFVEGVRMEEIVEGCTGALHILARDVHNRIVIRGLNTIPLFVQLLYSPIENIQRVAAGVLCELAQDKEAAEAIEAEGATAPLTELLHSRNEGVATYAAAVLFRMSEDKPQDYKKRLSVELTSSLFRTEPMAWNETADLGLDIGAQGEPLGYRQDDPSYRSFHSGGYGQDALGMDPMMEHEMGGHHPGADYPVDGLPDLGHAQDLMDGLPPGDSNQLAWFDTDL

Target: β-catenin (human (endogenous in T47D and MDA-MB-231)) (UniProt P35222)
Test: co-IP; Pierce Co-IP kit, lysates of T47D and MDA-MB-231 cells, detected by western blotting; also after EGF treatment of the cells (interaction decreased); which protein was precipitated is not told

- binding: binds
B1: Adherens junctions-associated protein 1 (AJAP1) (protein, UniProt Q9UKB5 44-411)
chain: LGPGPEFWLLPRSPPRPPRLWSFRSGQPARVPAPVWSPRPPRVERIHGQMQMPRARRAHRPRDQAAALVPKAGLAKPPAAAKSSPSLASSSSSSSSAVAGGAPEQQALLRRGKRHLQGDGLSSFDSRGSRPTTETEFIAWGPTGDEEALESNTFPGVYGPTTVSILQTRKTTVAATTTTTTTATPMTLQTKGFTESLDPRRRIPGGVSTTEPSTSPSNNGEVTQPPRILGEASGLAVHQIITITVSLIMVIAALITTLVLKNCCAQSGNTRRNSHQRKTNQQEESCQNLTDFPSARVPSSLDIFTAYNETLQCSHECVRASVPVYTDETLHSTTGEYKSTFNGNRPSSSDRHLIPVAFVSEKWFEISC
